No constants are given. Whether binding was seen depends on the method and setting. Binding seen in cells or lysates may run through a third protein. For some assays here: Binding can be weak; no strength is given. For some assays here: Where a sequence is shown, tags or fusion partners need not be part of it.

Experiment [1] concerns the target porcine MDA5, HA-tagged (pMDA5-HA) (porcine (Sus scrofa)). The experiment is described as follows: condition: only without cell activation (no EMCV infection); co-IP; 293T cells co-transfected for 24 h, not activated; lysates immunoprecipitated with anti-HA mAb; Western blot.
The target in experiment [2] is T1, porcine RIG-I, HA-tagged (pRIG-I-HA) (porcine (Sus scrofa)) (UniProt Q9GLV6).
T1 sequence: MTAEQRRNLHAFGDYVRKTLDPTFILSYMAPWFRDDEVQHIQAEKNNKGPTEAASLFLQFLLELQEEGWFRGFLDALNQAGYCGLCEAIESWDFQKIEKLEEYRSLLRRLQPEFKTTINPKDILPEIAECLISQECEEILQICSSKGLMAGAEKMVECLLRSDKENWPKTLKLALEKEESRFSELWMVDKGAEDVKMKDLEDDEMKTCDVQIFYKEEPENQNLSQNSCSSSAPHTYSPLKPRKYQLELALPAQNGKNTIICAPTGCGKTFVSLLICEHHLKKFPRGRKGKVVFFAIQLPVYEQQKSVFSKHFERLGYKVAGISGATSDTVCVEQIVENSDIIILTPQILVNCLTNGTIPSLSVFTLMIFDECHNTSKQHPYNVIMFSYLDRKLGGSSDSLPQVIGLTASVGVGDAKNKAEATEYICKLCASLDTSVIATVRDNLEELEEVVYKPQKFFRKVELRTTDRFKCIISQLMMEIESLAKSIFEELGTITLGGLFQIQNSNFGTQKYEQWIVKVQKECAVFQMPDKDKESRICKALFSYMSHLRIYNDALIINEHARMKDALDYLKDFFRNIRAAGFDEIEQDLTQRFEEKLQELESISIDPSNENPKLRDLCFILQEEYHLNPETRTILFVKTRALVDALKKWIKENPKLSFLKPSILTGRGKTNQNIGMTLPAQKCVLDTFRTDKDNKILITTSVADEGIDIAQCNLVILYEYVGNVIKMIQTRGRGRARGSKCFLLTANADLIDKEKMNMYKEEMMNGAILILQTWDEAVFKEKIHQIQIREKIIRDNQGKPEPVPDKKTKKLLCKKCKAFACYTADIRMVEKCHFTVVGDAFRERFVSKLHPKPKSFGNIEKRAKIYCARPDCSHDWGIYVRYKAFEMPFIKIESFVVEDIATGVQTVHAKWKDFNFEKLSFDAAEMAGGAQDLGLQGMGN
Described as above.

Experiment [3] addresses T1, porcine RIG-I, HA-tagged (pRIG-I-HA) (porcine (Sus scrofa)). The experiment is described as follows: co-IP; 293T cells co-transfected for 24 h, not activated; lysates immunoprecipitated with anti-HA mAb; Western blot.
Experiment [4] deals with porcine LGP2, FLAG-tagged (pLGP2-FLAG) (porcine (Sus scrofa)). The experiment is described as follows: co-IP; 293T cells co-transfected for 24 h, then infected with 0.01 MOI EMCV for 8 h; lysed in RIPA buffer; immunoprecipitated with anti-FLAG mAb and Protein A/G agarose; Western blot.
The target is the same in experiment [5]. The experiment is described as follows: condition: only without cell activation (no EMCV infection); co-IP; 293T cells co-transfected for 24 h, not infected (no cell activation); lysed in RIPA buffer; immunoprecipitated with anti-FLAG mAb and Protein A/G agarose; Western blot.
Experiment [6] deals with porcine MDA5, FLAG-tagged (pMDA5-FLAG) (porcine (Sus scrofa)). The experiment is described as follows: co-IP; 293T cells co-transfected for 24 h, not infected (no cell activation); lysed in RIPA buffer; immunoprecipitated with anti-FLAG mAb and Protein A/G agarose; Western blot.

As to “porcine LGP2, FLAG-tagged (pLGP2-FLAG) (from UniProt A0A2S1PVW1)”, the binding entry in experiment [1] and in experiment [2] was “no binding” each time.
For the molecule porcine MDA5, FLAG-tagged (pMDA5-FLAG), the binding result in experiment [3] is “no binding”.
With “porcine MDA5, HA-tagged (pMDA5-HA) (from UniProt A0A2S1PVX7)”, the binding result was “binds” in experiment [4] and “no binding” in experiment [5].

B1: porcine RIG-I, HA-tagged (pRIG-I-HA) (protein, UniProt Q9GLV6 1-940)
chain: T1 sequence
Turning to B1, the binding entry in experiment [6] was “no binding”; in experiment [4], “binds”; in experiment [5] it was “no binding”.

These data come from paper PMC8169967.
